From PMC5479863
These are yes or no findings as the source states them, for the method shown.

By UniProt entry, the sequences of proteins in these tests, tags left out. Where a name states a change or a piece, a line headed by the entry shows the natural chain unless it says otherwise.
UniProt Q9GZN7: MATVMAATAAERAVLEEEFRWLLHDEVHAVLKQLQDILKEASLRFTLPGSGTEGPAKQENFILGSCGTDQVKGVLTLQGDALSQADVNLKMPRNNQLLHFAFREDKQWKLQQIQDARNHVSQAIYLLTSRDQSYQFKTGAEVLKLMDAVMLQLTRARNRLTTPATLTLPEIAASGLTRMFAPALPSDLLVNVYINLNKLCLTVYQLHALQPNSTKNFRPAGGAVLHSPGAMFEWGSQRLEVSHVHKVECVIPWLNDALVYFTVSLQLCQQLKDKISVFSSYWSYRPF

Legend:
[1] = target: Human full-length Rogdi (residues 1-287) (human) (UniProt Q9GZN7); assay: AUC; sedimentation equilibrium; 25 mM TRIS-HCl pH 7.5, 150 mM NaCl, 5 mM β-mercaptoethanol; 10, 15 and 20 μM protein; 10000, 20000 and 30000 rpm; 15 °C; fitted to a single species model; both purified
[2] = target: Human full-length Rogdi (residues 1-287) (human) (UniProt Q9GZN7); assay: crystal structure; full-length Rogdi, space group R3, 2.8 Å, four copies in the asymmetric unit; crystals grown at 4 °C in 2 M NaCl, 130 mM MgCl2, 100 mM TRIS pH 7.0; both purified
[3] = target: Human full-length Rogdi (residues 1-287) (human) (UniProt Q9GZN7); assay: SEC; Superdex 200 column; 25 mM TRIS, 150 mM NaCl, 5 mM DTT, pH 7.5; mass standards aldolase, ovalbumin, carbonic anhydrase, RNase A; both purified
[4] = target: Human truncated Rogdi (tRogdi, residues 11-276) (human) (UniProt Q9GZN7); assay: AUC; sedimentation equilibrium; 25 mM TRIS-HCl pH 7.5, 150 mM NaCl, 5 mM β-mercaptoethanol; 10, 15 and 20 μM protein; 10000, 20000 and 30000 rpm; 15 °C; fitted to a single species model; both purified
[5] = target: Human truncated Rogdi (tRogdi, residues 11-276) (human) (UniProt Q9GZN7); assay: SEC; Superdex 200 column; 25 mM TRIS, 150 mM NaCl, 5 mM DTT, pH 7.5; mass standards aldolase, ovalbumin, carbonic anhydrase, RNase A; both purified

| binding [2] | binding [3] | binding [5] | Substance | binding [1] | binding [4] |
| --- | --- | --- | --- | --- | --- |
| no binding | no binding |  | Human full-length Rogdi (residues 1-287) (from UniProt Q9GZN7 1-287) | no binding (tested: 10 μM, 15 μM, and 20 μM) |  |
|  |  | no binding | Human truncated Rogdi (tRogdi, residues 11-276) (from UniProt Q9GZN7 11-276) (domain or fragment) |  | no binding (tested: 10 μM, 15 μM, and 20 μM) |
